Experimental findings from the supplement of paper PMC4604168 (melanoma cell lines) are described below.

Some of the results follow. Repeats are few or missing, and single values can be far off.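 The apoptosis fraction was the count of cleaved-PARP antibody-stained nuclei relative to all DNA-stained nuclei, imaged in 1,536-well plates. Screening doses were set so most cells survived, and baseline and induced cleaved-PARP levels vary greatly across cell lines.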

For this assay, the system named is WM115. Briefly: cleaved PARP positive nuclei fraction relative to DMSO control; melanoma cells; higher = more apoptosis. Particulars: library dose: low library concentration; 72 h.
For `C=C(c1ccc(C(=O)O)cc1)c1cc2c(cc1C)C(C)(C)CCC2(C)C` [Bexarotene] + O=C(Nc1ccccc1)c1cc([N+](=O)[O-])ccc1Cl [GW9662] (first compound 2 µM, partner dose 2 µM), the “cleaved PARP positive nuclei fraction” value was found to be 211%.
Regarding `CNC(=O)c1cc(Oc2ccc(NC(=O)Nc3ccc(Cl)c(C(F)(F)F)c3)cc2)ccn1` [sorafenib] + COC(=O)c1sccc1S(=O)(=O)Nc1ccc(Nc2ccccc2)cc1OC [GSK0660] (first compound 0.4 µM, partner dose 1 µM), the “cleaved PARP positive nuclei fraction” value is 120%.
With `CNC(=O)c1cc(Oc2ccc(NC(=O)Nc3ccc(Cl)c(C(F)(F)F)c3)cc2)ccn1` [sorafenib] + CCCCCCCCCCCC1=C(O)C(=O)C=C(O)C1=O [Embelin] (first compound 0.4 µM, partner dose 1.2 µM), the “cleaved PARP positive nuclei fraction” value was found to be 65.2%.
For `CS(=O)(=O)CCNCc1ccc(-c2ccc3ncnc(Nc4ccc(OCc5cccc(F)c5)c(Cl)c4)c3c2)o1` [lapatinib] + CN(C)S(=O)(=O)c1ccc2c(c1)/C(=C/c1cc3c([nH]1)CCCC3)C(=O)N2 [SU6656] (first compound 0.8 µM, partner dose 0.4 µM), the “cleaved PARP positive nuclei fraction” value was 133%.
Turning to `C[C@@H](Oc1cc(-c2cnn(C3CCNCC3)c2)cnc1N)c1c(Cl)ccc(F)c1Cl` [Crizotinib] + CCCCCCCCCCCC1=C(O)C(=O)C=C(O)C1=O [Embelin] (first compound 0.2 µM, partner dose 1.2 µM), the “cleaved PARP positive nuclei fraction” value amounted to 216%.
As for `Nc1nc(F)nc2c1ncn2[C@@H]1O[C@H](CO)[C@@H](O)[C@@H]1O` [fludarabine] + Cc1cc(N2CCOCC2)cc2[nH]c(-c3c(NC[C@@H](O)c4cccc(Cl)c4)cc[nH]c3=O)nc12 [BMS536924] (first compound 0.2 µM, partner dose 0.2 µM), the “cleaved PARP positive nuclei fraction” value is 31.9%.
The same measure for `Cc1cc(Nc2cc(N3CCN(C)CC3)nc(/C=C/c3ccccc3)n2)n[nH]1` + COc1ccc(COc2ccc(Cc3cnc(N)nc3N)cc2OC)cc1 [GW2580] (first compound 0.04 µM, partner dose 1 µM): 41.6%; for `CNC(=O)c1cc(Oc2ccc(NC(=O)Nc3ccc(Cl)c(C(F)(F)F)c3)cc2)ccn1` [sorafenib] + NCC(=O)Nc1ccc(-n2nc(C(F)(F)F)cc2-c2ccc3c(ccc4ccccc43)c2)cc1 [OSU03012] (first compound 0.4 µM, partner dose 1 µM): 96.7%; for `Cc1cc(Nc2cc(N3CCN(C)CC3)nc(/C=C/c3ccccc3)n2)n[nH]1` + OCCn1cc(-c2cnc3nnn(Cc4ccc5ncccc5c4)c3n2)cn1 [PF04217903] (first compound 0.04 µM, partner dose 1 µM): 44.6%.
For the compound `Nc1nc(F)nc2c1ncn2[C@@H]1O[C@H](CO)[C@@H](O)[C@@H]1O` [fludarabine] + CCc1ccc(CCOc2ccc(CC3SC(=O)NC3=O)cc2)nc1 [pioglitazone] (first compound 0.2 µM, partner dose 2 µM), the “cleaved PARP positive nuclei fraction” value amounted to 274%.
Turning to `CS(=O)(=O)CCNCc1ccc(-c2ccc3ncnc(Nc4ccc(OCc5cccc(F)c5)c(Cl)c4)c3c2)o1` [lapatinib] + OCCn1cc(-c2cnc3nnn(Cc4ccc5ncccc5c4)c3n2)cn1 [PF04217903] (first compound 0.8 µM, partner dose 1 µM), the “cleaved PARP positive nuclei fraction” value is 189%.
Turning to `CNC(=O)c1cc(Oc2ccc(NC(=O)Nc3ccc(Cl)c(C(F)(F)F)c3)cc2)ccn1` [sorafenib] + Cc1cc([N+](=O)[O-])ccc1NS(=O)(=O)c1cc(Cl)ccc1Cl [FH535] (first compound 0.4 µM, partner dose 1 µM), the “cleaved PARP positive nuclei fraction” value is 49.4%.
In the case of `CN1CCN(c2ccc3nc(-c4c(N)c5c(F)cccc5[nH]c4=O)[nH]c3c2)CC1` [Dovitinib] + COc1ccc2c(c1)CCC1C2CCC2(C)C(NCCCCCCN3C(=O)C=CC3=O)CCC12 [U73122] (first compound 0.1 µM, partner dose 0.4 µM) it was 209%.
Regarding `O=C(O)[C@@H]1[O][Sb](=[O])([O][Sb]2(=[O])[O][C@H]([C@H](O)CO)[C@H](O)[C@H](C(=O)O)[O]2)[O][C@H]([C@H](O)CO)[C@@H]1O` (stereo not given in full) [stibogluconate] + COc1cc(N2CCC(N3CCN(C)CC3)CC2)ccc1Nc1ncc(Cl)c(Nc2ccccc2S(=O)(=O)C(C)C)n1 [NVP-TAE684] (first compound 2 µM, partner dose 0.08 µM), the “cleaved PARP positive nuclei fraction” value was determined as 131%.
As to `CCCS(=O)(=O)Nc1ccc(F)c(C(=O)c2c[nH]c3ncc(Cl)cc23)c1F` + N#Cc1c(O)c2c(-c3ccc(-c4ccccc4O)cc3)csc2[nH]c1=O [A769662] (first compound 0.08 µM, partner dose 2 µM), the “cleaved PARP positive nuclei fraction” value is 94.9%.
As to `CN1CCN(c2ccc3nc(-c4c(N)c5c(F)cccc5[nH]c4=O)[nH]c3c2)CC1` [Dovitinib] + Cc1cc(N2CCOCC2)cc2[nH]c(-c3c(NC[C@@H](O)c4cccc(Cl)c4)cc[nH]c3=O)nc12 [BMS536924] (first compound 0.1 µM, partner dose 0.2 µM), the “cleaved PARP positive nuclei fraction” value came out at 210%.
With `C[C@@H](Oc1cc(-c2cnn(C3CCNCC3)c2)cnc1N)c1c(Cl)ccc(F)c1Cl` [Crizotinib] + COc1ccc(-c2ccc3c(N4CCOCC4)nc(N4C[C@@H](C)O[C@@H](C)C4)nc3n2)cc1CO [KU0063794] (first compound 0.2 µM, partner dose 0.02 µM), the “cleaved PARP positive nuclei fraction” value was 66.5%.
In the case of `O=C(O)[C@@H]1[O][Sb](=[O])([O][Sb]2(=[O])[O][C@H]([C@H](O)CO)[C@H](O)[C@H](C(=O)O)[O]2)[O][C@H]([C@H](O)CO)[C@@H]1O` (stereo not given in full) [stibogluconate] + O=C(O)c1ccc(-c2c[nH]c3ncc(-c4ccccc4)cc23)cc1C1CCCC1 [GSK650394] (first compound 2 µM, partner dose 0.16 µM) it was 44.5%; in that of `Cn1c(=O)n(-c2ccc(C(C)(C)C#N)cc2)c2c3cc(-c4cnc5ccccc5c4)ccc3ncc21` + CCCCCCCCCCCC1=C(O)C(=O)C=C(O)C1=O [Embelin] (first compound 0.004 µM, partner dose 1.2 µM), 203%.
For the compound `CN1CCN(c2ccc3nc(-c4c(N)c5c(F)cccc5[nH]c4=O)[nH]c3c2)CC1` [Dovitinib] + NCC(=O)Nc1ccc(-n2nc(C(F)(F)F)cc2-c2ccc3c(ccc4ccccc43)c2)cc1 [OSU03012] (first compound 0.1 µM, partner dose 1 µM), the “cleaved PARP positive nuclei fraction” value was 96.6%.
For `C=C(c1ccc(C(=O)O)cc1)c1cc2c(cc1C)C(C)(C)CCC2(C)C` [Bexarotene] + Cc1cc([N+](=O)[O-])ccc1NS(=O)(=O)c1cc(Cl)ccc1Cl [FH535] (first compound 2 µM, partner dose 1 µM), the “cleaved PARP positive nuclei fraction” value is 35.8%.
Regarding `Cc1cc(Nc2cc(N3CCN(C)CC3)nc(/C=C/c3ccccc3)n2)n[nH]1` + COC(=O)c1sccc1S(=O)(=O)Nc1ccc(Nc2ccccc2)cc1OC [GSK0660] (first compound 0.04 µM, partner dose 1 µM), the “cleaved PARP positive nuclei fraction” value was 91.2%.
Regarding `CC(C)C[C@H](NC(=O)[C@H](Cc1ccccc1)NC(=O)c1cnccn1)B(O)O` [Bortezomib] + Cc1cc([N+](=O)[O-])ccc1NS(=O)(=O)c1cc(Cl)ccc1Cl [FH535] (first compound 0.001 µM, partner dose 1 µM), the “cleaved PARP positive nuclei fraction” value amounted to 95.6%.
Turning to `CC(C)C[C@H](NC(=O)[C@H](Cc1ccccc1)NC(=O)c1cnccn1)B(O)O` [Bortezomib] + O=C(CCCCCCC(=O)Nc1ccccc1)NO [vorinostat] (first compound 0.001 µM, partner dose 0.08 µM), the “cleaved PARP positive nuclei fraction” value amounted to 144%.
As for `Nc1ncn([C@H]2C[C@H](O)[C@@H](CO)O2)c(=O)n1` [decitabine] + COc1ccc2c(c1)CCC1C2CCC2(C)C(NCCCCCCN3C(=O)C=CC3=O)CCC12 [U73122] (first compound 0.1 µM, partner dose 0.4 µM), the “cleaved PARP positive nuclei fraction” value amounted to 151%.
